Source: PubChem BioAssay AID1347139 (National Center for Advancing Translational Sciences (NCATS), 2019)
The inconclusive results got no clear call from the source. Where the call is inconclusive, the potency comes from a doubtful curve fit.

Assay: qHTS of pediatric cancer cell lines to identify multiple opportunities for drug repurposing: Orthogonal 3D viability screen for TC32 cells
Details: TC32 3D spheroid viability, PI/Hoechst imaging, 72 h; active means well fitted inhibition curve with a large enough effect; inconclusive means small, poorly fitted or top-dose-only effect; inactive means no such curve, though single readings can be large or run the other way
From the text: Drug repurposing or repositioning has been offered as a strategy for drug development in oncology programs. This approach has special potential for childhood cancers and other rare or orphan diseases, where the expected return on new drug development has been a disincentive to pharmaceuticals. […] In this project we exploit the poly-pharmacology of drugs to discover new indications via phenotypic screening of a panel of 19 well-characterized cell lines derived from solid tumors seen in children and adolescents. The goal is to identify approved drugs with previously unrecognized anticancer properties that has the potential to reveal new mechanisms and biological processes involved in carcinogenesis or drug resistance. We employed a titration-based paradigm (quantitative high-throughput screening or qHTS), where all compounds were tested at multiple concentrations for their effect on cell viability. […] Assay Submitter: Nathalia J. Martinez, National Center for Advancing Translational Sciences, National Institutes of Health, Rockville, MD, USA; email: natalia.martinez@nih.gov Shen, M et al. Quantitative high-throughput phenotypic screening of pediatric cancer cell lines identifies multiple opportunities for drug repurposing. […]

## C[C@@H]1C[C@@H]([C@H](O)CC2CC(=O)NC(=O)C2)C(=O)[C@@H](C)C1
  Potency: inconclusive: 1020 nM [inhibitor, full curve]
